Test results taken from PMC2093940.
For at least one entry, the source does not settle the construct or the ends of the probe. At least one result comes from cells or an extract, where the contact may be indirect.

Amino acid sequences for entries named in this document (tags omitted). A change or cut given only in a name is not applied to a line headed by its entry.
UniProt O75364: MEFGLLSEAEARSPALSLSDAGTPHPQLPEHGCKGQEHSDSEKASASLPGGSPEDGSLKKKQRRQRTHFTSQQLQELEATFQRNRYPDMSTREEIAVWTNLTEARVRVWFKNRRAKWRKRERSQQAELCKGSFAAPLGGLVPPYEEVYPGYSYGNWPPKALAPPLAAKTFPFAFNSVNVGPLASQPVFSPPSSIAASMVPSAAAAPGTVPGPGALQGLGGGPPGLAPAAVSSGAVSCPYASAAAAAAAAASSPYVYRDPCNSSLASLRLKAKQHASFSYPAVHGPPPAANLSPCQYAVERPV

Target: PITX3 G219fs (Homo sapiens) (UniProt O75364)
Assay: EMSA
Settings: poly[d(I-C)], monomer binding retained, two main low-mobility complexes absent; LightShift kit binding buffer (composition and pH not given), 50 ng/ul poly[d(I-C)], 20 fmol probe, RT 15 min (30 min with antibody), 5% PAGE in 1x TBE; protein in a lysate after overexpression; residues 1-218; protein details: C-terminal c-Myc and His vector, called myc-tagged; label: 3' biotin

Sequence: GATCCTAATCCCGTCGCGTCGTAATCCGGATC (double strand) [bicoid probe (Bcd 2x 10n)]
- binding result: binds
